Reference: paper PMC7538584
Results are given in words; binding and its absence hold for the method and conditions named. In cells and extracts the contact can be indirect. Some binding calls cover weakened binding; strength is not graded here.

Amino acid sequences for entries named in this document (tags omitted). Residues count along the entry.
UniProt P25799, residues 1-431: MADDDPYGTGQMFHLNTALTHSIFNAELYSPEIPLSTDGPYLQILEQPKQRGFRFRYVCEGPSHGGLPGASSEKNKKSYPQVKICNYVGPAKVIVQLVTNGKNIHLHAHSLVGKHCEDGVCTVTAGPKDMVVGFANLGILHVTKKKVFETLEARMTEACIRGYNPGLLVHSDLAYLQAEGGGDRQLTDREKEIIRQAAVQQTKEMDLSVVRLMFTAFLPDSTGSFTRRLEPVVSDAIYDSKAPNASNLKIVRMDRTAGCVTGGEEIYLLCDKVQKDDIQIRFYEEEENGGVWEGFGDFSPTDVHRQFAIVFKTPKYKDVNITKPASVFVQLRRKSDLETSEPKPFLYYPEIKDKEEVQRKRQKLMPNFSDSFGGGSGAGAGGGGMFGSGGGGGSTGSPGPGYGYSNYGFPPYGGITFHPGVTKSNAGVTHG

Tests used:
[1] = biological target: p50, endogenous mouse (mouse (endogenous in primary MEFs)) (UniProt P25799); experiment: co-IP; WT MEFs expressing TopBP1^ER transfected with si-CHK1 and treated with TAM (4 h); IP with anti-p50, immunoblot
[2] = biological target: p50, endogenous mouse (mouse (endogenous in primary MEFs)) (UniProt P25799); experiment: co-IP; endogenous proteins in primary WT MEFs, HeLa and MCF-7 cells; IP with anti-p50, immunoblot; cells untreated, treated with HU (2 mM, 4 h), with tamoxifen (4 h) in cells expressing TopBP1^ER or GFP^ER, or synchronized by double-thymidine block; knock-down of BRCA1 or BCL3 did not remove the association
[3] = biological target: p50, endogenous mouse (mouse (endogenous in primary MEFs)) (UniProt P25799); experiment: condition: only lysate treated with lambda phosphatase; co-IP; endogenous proteins; lysate treated with lambda protein phosphatase prior to IP with anti-p50, IB with anti-Bard1

B1: Bard1, endogenous mouse (protein, UniProt O70445 1-765)
chain: MPRRPPRVCSGNQPAPVPAMEPATDGLWAHSRAALARLEKLLRCSRCANILKEPVCLGGCEHIFCSGCISDCVGSGCPVCYTPAWILDLKINRQLDSMIQLSSKLQNLLHDNKDSKDNTSRASLFGDAERKKNSIKMWFSPRSKKVRYVVTKVSVQTQPQKAKDDKAQEASMYEFVSATPPVAVPKSAKTASRTSAKKHPKKSVAKINREENLRPETKDSRFDSKEELKEEKVVSCSQIPVMERPRVNGEIDLLASGSVVEPECSGSLTEVSLPLAEHIVSPDTVSKNEETPEKKVCVKDLRSGGSNGNRKGCHRPTTSTSDSCGSNIPSTSRGIGEPALLAENVVLVDCSSLPSGQLQVDVTLRRKSNASDDPLSLSPGTPPPLLNNSTHRQMMSSPSTVKLSSGMPARKRNHRGETLLHIASIKGDIPSVEYLLQNGNDPNVKDHAGWTPLHEACSHGHLKVVELLLQHNALVNTPGYQNDSPLHDAVKSGHIDIVKVLLSHGASRNAVNIFGVRPVDYTDNENIRSLLLLPEENESFSTSQCSIVNTGQRKNGPLVFIGSGLSSQQQKMLSKLETVLKAKKCMEFDSTVTHVIVPDEEAQSTLKCMLGILSGCWILKFDWVKACLDSKVREQEEKYEVPGGPQRSRLNREQLLPKLFDGCYFFLGGNFKHHPRDDLLKLIAAAGGKVLSRKPKPDSDVTQTINTVAYHAKPESDQRFCTQYIVYEDLFNCHPERVRQGKVWMAPSTWLISCIMAFELLPLDS
[1]
  binding: no binding (condition: after knock-down of CHK1 (si-CHK1))
[2]
  binding: binds
[3]
  binding: no binding
